{"sequences": {"note": "Chains of the proteins cited; added tags and fusions are not shown.", "UniProt Q96GD4": "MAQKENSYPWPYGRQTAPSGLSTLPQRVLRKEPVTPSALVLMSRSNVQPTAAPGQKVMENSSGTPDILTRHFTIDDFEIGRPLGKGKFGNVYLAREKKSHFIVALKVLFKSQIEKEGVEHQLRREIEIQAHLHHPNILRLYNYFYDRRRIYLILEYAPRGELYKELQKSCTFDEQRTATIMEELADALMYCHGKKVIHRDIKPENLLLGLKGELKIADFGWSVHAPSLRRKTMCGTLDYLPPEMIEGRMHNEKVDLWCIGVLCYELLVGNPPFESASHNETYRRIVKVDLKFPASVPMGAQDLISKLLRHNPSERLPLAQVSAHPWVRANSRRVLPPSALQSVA"}, "source": "paper PMC4467402", "molecular_target": "T1, Flag-ETS-1 (UniProt P14921)", "T1 sequence": "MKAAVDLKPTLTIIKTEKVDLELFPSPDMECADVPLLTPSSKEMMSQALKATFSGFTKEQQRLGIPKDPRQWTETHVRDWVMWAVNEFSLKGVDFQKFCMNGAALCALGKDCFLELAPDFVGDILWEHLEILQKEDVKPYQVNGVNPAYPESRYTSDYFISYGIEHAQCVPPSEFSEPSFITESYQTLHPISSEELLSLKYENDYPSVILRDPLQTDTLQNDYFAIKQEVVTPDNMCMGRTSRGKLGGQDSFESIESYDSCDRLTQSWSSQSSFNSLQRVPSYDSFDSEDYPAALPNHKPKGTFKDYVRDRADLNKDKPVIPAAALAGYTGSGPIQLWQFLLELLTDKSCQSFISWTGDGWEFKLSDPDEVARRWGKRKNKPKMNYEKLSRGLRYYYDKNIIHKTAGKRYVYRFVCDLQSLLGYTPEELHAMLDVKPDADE", "assay": "co-IP; Saos-2 (p53-/-) cells transfected with tagged ETS-1 and AK-B, without or with p53; immunoprecipitation of Flag-ETS-1, blot for AK-B; lysis and washes in RIPA buffer (10 mM Tris pH 7.5, 150 mM NaCl, 2 mM EDTA, 1% NP40), 4°C", "note": "No constants are given. Whether binding was seen depends on the method and setting. In cells and extracts the contact can be indirect. Some entries that bind do so weakly or less than the wild type. Sequences can lack the tags named with a protein.", "data": [{"substance": "Aurora kinase B (from UniProt Q96GD4 1-344) (enzyme)", "values": [{"measurement": "binding", "value": "binds"}]}]}
